From article PMC6175864 come the findings set out here.

Amino acid sequences for entries named in this document (tags omitted). A change or cut given only in a name is not applied to a line headed by its entry. Chains listed by the source or under a name are the forms on record and can include a tag or linker.
UniProt P62745: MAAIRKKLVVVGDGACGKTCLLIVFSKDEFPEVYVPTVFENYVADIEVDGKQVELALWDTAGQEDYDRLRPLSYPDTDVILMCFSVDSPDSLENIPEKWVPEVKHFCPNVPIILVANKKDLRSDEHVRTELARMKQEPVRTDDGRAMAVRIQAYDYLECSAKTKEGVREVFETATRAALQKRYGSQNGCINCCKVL
HA-tagged RhoB T173,175A (2A), in HEK293T (P62745, form named): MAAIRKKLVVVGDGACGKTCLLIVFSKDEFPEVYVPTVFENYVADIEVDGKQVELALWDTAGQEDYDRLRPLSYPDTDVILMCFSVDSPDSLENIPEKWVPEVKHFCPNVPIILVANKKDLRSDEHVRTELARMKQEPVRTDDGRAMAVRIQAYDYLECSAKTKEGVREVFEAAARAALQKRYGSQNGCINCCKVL
HA-tagged RhoB T173,175E (2E), in HEK293T (P62745, form named): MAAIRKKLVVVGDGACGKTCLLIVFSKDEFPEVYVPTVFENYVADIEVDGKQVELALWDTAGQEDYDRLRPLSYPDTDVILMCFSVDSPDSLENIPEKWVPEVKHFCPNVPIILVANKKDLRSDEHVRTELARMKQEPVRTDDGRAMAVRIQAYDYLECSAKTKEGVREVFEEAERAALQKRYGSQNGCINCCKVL
HA-tagged RhoB 4KR, in HeLa (P62745, form named): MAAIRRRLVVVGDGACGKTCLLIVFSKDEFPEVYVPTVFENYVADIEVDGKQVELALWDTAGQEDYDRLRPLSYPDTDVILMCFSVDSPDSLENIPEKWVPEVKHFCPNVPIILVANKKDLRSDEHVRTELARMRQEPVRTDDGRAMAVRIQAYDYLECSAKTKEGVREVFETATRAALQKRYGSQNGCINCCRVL
UniProt P49815: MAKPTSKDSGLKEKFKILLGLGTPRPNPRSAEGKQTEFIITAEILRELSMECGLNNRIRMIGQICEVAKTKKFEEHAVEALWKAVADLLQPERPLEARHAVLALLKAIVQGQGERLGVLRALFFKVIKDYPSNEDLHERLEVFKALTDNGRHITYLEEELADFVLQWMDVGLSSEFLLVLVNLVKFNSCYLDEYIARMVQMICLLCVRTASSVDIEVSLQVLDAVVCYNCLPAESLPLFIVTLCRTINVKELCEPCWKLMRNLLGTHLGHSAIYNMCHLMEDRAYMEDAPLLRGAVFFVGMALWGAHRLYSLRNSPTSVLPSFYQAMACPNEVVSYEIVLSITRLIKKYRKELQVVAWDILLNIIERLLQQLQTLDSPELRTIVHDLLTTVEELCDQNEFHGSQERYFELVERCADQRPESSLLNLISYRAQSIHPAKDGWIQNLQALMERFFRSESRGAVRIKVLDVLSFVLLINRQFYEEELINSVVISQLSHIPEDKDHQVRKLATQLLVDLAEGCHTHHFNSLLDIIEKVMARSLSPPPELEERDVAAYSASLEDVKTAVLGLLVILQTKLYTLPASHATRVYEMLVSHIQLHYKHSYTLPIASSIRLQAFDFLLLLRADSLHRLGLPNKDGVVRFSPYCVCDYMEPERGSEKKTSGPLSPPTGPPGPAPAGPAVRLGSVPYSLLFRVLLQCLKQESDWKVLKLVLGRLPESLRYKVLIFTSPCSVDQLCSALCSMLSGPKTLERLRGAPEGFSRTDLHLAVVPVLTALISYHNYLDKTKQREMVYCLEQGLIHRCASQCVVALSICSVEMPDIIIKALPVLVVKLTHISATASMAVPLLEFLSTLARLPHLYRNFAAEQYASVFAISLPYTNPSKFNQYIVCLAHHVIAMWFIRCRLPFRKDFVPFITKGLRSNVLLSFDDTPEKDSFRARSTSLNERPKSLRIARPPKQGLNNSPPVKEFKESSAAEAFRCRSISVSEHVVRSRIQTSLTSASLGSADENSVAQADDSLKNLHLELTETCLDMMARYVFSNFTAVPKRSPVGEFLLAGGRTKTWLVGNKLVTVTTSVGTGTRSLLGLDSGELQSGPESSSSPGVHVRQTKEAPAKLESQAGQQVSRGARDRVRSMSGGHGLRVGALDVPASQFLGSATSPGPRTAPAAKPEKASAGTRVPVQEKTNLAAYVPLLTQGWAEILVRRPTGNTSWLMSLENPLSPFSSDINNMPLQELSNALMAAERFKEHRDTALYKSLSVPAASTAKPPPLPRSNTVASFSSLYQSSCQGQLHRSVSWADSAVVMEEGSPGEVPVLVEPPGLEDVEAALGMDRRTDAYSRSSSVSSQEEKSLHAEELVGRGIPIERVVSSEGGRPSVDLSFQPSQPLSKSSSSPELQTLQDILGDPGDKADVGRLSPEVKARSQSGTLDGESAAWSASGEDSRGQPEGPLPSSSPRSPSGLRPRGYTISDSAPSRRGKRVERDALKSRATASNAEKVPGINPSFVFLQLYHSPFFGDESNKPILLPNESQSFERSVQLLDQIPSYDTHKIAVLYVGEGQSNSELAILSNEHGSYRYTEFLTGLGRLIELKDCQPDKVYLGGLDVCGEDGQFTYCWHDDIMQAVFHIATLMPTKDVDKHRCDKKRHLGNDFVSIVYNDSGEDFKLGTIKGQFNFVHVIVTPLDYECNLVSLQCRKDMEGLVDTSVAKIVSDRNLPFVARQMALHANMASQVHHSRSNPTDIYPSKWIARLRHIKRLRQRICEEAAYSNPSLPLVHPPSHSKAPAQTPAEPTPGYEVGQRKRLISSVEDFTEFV
UniProt O75925: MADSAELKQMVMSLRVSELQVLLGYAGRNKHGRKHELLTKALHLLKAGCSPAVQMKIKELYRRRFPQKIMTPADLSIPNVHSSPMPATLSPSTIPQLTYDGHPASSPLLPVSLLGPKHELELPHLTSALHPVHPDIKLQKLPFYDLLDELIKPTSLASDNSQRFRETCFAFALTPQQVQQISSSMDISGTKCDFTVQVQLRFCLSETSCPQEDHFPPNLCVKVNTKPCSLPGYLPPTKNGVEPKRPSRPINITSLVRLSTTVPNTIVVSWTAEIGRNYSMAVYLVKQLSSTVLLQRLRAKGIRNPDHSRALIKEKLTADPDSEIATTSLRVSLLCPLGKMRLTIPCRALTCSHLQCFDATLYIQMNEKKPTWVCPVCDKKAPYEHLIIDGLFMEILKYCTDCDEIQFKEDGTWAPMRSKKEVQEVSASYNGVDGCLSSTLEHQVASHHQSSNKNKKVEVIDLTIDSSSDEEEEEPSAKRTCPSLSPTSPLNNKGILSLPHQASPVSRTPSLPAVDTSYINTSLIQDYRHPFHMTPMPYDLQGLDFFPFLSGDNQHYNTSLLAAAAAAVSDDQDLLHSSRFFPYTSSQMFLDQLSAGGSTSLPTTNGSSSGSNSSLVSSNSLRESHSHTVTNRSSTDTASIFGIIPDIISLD
UniProt P63279: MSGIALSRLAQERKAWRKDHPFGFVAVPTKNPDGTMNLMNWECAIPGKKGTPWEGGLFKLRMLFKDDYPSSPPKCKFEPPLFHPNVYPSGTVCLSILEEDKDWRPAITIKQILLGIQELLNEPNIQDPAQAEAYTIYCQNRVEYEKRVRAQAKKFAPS

These are yes or no findings as the source states them, for the method shown. For part of these data: In cells and extracts the contact can be indirect. Some entries that bind do so weakly or less than the wild type.

Experiment [1] addresses endogenous RhoB (HeLa) (human (endogenous in HeLa)) (UniProt P62745). Description: co-IP; HeLa cells transduced with the tagged catalytically inactive mutant; anti-RhoB IP of endogenous RhoB, blot for the associated mutant.
The target in experiment [2] is endogenous TSC2 (HeLa) (human (endogenous in HeLa)) (UniProt P49815). In words: co-IP; HeLa cells (untransduced or transduced with HA-RhoB forms), untreated or 2 h after UV (80 J/m2) or 4 h after MMS (0.5 mM), with or without Chk1 inhibitor; anti-TSC2 IP of endogenous TSC2, blot for associated RhoB.
The target of experiment [3] is Flag-tagged PIAS1 (F-PIAS1) (UniProt O75925). In words: co-IP; HEK293T cells transfected with Flag- and HA-tagged proteins, lysed in TNTE 0.5% (50 mM Tris-HCl pH 7.5, 150 mM NaCl, 1 mM EDTA, 0.5% Triton X-100); anti-Flag IP, blot for associated HA-RhoB; for PIAS1 cells with or without UV (80 J/m2, 1 h) or MMS.
Experiment [4] has as its target Flag-tagged Ubc9 (F-Ubc9) (UniProt P63279). The description is as above.
Experiment [5] has as its target exogenous RhoB (constructs of Supplementary Fig. 1d and 6e) (human) (UniProt P62745). Description: co-IP; in cells with exogenous RhoB (Supplementary Fig. 1d and 6e); tags, cells and the precipitated partner not shown.
For a further experiment, the target named is GST-RhoB (human) (UniProt P62745). In words: pull-down; in vitro GST pull-down with bacterially expressed proteins purified on glutathione sepharose beads in TNTE 0.5% buffer; free Ubc9 and PIAS1 obtained by TEV cleavage; both purified.

Regarding “HA-tagged PIAS1-C351S mutant (HA-PIAS1-C351S) (from UniProt O75925 1-651) (enzyme)”, the binding result in experiment [1] was “binds”.

For the substance “HA-tagged RhoB 2A, in HeLa (from UniProt P62745 1-196)”, in experiment [2], the binding entry is recorded as “binds weakly”.

As to “HA-tagged RhoB 2E, in HeLa (from UniProt P62745 1-196)”, the binding entry in experiment [2] is listed as “binds”.

Regarding “HA-tagged RhoB 4KR, in HeLa (from UniProt P62745 1-196)”, the binding entry in experiment [2] is reported as “binds”.

“HA-tagged RhoB (HA-RhoB), wild type, in HEK293T (from UniProt P62745 1-196)”: the binding result in experiment [3] and in experiment [4] was “binds” each time.

As to “HA-tagged RhoB T173,175A (2A), in HEK293T (from UniProt P62745 1-196)”, the binding entry in experiment [3] is “binds weakly”.

Turning to “HA-tagged RhoB T173,175E (2E), in HEK293T (from UniProt P62745 1-196)”, the binding result in experiment [3] was “binds”.

As to “HA-tagged RhoB, wild type, in HeLa (from UniProt P62745 1-196)”, the binding entry in experiment [2] was “binds”.

In the case of “PIAS1-C351S (construct of Supplementary Fig. 1d) (from UniProt O75925 1-651) (enzyme)”, the binding entry in experiment [5] is “binds”.

On to “endogenous RhoB (HeLa) (from UniProt P62745 1-196)”, for which the binding result in experiment [2] was “binds”.

With “free PIAS1 protein (from GST-PIAS1 by TEV cleavage) (from UniProt O75925 1-651) (enzyme)”, the binding result in the experiment with GST-RhoB (human) is reported as “binds”.
